Data on three substances can be found in paper PMC12669790.

Sequences of proteins named here, by UniProt entry; tags and fusion partners are left off.
UniProt Q8IYM9: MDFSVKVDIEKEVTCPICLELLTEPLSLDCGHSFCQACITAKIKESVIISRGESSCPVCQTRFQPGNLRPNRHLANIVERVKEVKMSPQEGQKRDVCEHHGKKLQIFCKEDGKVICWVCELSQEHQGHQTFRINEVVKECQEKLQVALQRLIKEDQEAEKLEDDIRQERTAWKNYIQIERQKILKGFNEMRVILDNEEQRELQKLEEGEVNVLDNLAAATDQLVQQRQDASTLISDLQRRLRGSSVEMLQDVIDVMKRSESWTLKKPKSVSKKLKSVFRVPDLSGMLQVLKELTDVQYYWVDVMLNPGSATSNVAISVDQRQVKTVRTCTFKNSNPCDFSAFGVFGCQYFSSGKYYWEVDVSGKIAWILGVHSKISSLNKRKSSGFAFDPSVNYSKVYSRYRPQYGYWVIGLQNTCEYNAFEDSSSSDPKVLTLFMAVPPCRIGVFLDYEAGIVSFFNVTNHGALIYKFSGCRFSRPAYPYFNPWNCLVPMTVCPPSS
UniProt Q14258: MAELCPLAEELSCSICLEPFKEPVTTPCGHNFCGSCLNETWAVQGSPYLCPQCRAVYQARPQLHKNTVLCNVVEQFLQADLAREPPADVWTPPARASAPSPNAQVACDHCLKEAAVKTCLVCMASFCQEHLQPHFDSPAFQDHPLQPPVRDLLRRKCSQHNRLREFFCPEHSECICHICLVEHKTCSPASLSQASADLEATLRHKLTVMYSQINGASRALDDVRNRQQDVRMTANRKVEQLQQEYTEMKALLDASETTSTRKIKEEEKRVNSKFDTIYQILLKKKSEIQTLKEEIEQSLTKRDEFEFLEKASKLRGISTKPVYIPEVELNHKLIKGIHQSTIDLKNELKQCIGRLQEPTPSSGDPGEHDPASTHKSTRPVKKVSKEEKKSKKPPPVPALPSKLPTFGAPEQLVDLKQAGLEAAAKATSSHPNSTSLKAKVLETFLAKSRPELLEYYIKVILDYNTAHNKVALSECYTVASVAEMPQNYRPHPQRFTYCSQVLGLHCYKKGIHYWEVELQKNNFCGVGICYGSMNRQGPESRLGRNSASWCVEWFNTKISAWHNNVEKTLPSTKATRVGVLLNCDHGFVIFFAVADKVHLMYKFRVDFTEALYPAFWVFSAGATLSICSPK
UniProt Q13263: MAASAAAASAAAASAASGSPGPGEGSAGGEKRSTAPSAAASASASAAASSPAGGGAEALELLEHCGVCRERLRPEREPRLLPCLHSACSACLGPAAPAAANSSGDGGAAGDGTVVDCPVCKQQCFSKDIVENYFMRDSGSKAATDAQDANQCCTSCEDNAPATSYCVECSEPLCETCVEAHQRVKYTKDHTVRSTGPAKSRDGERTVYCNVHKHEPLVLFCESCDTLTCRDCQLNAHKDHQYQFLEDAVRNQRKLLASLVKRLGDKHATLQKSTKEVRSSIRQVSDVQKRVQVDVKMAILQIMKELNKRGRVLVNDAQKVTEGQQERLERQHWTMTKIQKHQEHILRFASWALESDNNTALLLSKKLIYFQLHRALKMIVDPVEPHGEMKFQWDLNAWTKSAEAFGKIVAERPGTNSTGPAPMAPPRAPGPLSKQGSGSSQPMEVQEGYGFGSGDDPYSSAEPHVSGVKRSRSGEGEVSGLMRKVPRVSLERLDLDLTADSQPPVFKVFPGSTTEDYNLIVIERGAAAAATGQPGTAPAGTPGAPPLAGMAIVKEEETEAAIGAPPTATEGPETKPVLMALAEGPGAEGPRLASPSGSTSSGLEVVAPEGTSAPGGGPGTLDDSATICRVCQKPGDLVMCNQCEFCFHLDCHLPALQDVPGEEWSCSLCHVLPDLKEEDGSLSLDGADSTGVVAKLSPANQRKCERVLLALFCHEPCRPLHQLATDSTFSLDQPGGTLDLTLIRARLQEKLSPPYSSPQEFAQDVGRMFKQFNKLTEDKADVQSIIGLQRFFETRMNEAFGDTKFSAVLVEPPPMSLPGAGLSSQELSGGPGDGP

The target in the test is T1, ETS proto-oncogene 1 (ETS1) (human (endogenous in HUVEC)) (UniProt P14921).
T1 sequence: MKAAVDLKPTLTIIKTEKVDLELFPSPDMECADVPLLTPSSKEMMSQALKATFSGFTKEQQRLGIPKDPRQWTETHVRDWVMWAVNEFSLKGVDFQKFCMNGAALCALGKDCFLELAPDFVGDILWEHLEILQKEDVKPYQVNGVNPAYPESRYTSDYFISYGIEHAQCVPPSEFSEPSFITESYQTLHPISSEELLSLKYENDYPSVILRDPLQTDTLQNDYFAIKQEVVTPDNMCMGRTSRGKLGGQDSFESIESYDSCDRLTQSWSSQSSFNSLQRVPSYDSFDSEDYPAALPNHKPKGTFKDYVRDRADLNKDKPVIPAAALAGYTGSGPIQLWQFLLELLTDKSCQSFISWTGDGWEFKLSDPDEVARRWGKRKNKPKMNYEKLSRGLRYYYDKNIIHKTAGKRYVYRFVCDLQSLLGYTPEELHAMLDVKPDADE
The test is described as follows: affinity purification with mass spectrometry; supernatant of HUVEC lysate incubated with antibody against ETS1 (#14069, Cell Signaling Technology) overnight at 4 °C, magnetic beads overnight at 4 °C, washed, LC-MS/MS (Q-Exactive).

Results are given in words; binding and its absence hold for the method and conditions named. In cells and extracts the contact can be indirect. These calls come from enrichment with a bait or labelling near it, and not all partners need be listed.

For the substance TRIM22 (from UniProt Q8IYM9 1-498), the binding result is given as “binds”.
The value for TRIM25 (from UniProt Q14258 1-630) was “binds”; that for TRIM28 (from UniProt Q13263 1-835) was “binds”.
